These are yes or no findings as the source states them, for the method shown. Binding seen in cells or lysates may run through a third protein. A yes stands for co-enrichment or nearness to the bait. Other partners may have been found. For some assays here: No binding means not detected with the bait. Sequences can lack the tags named with a protein.

The target of assay [1] is T1, TurboID-Flag-ZBTB20 (UniProt Q8K0L9).
T1 sequence: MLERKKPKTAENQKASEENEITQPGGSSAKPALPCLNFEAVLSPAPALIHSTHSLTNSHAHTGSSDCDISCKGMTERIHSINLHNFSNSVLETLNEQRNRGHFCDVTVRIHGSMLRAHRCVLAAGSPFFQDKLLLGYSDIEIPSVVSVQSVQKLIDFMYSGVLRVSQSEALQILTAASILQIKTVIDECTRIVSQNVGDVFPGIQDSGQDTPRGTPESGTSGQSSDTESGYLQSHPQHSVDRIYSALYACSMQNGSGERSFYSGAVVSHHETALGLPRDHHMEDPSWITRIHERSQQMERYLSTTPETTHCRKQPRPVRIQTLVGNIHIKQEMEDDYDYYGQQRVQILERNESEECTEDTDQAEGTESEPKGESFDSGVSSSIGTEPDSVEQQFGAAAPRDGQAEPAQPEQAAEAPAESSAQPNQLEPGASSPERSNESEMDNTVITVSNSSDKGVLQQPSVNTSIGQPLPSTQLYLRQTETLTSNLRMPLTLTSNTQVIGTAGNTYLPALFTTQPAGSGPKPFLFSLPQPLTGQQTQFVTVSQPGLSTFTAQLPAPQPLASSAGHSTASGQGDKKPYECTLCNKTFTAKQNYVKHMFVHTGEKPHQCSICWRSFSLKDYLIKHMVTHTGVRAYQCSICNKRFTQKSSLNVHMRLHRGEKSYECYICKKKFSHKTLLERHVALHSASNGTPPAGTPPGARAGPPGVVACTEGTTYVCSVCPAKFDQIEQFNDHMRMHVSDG
Nature of the assay: proximity labelling; chondrocytes transduced with Ad-TurboID-Fg-Zbtb20 (control Ad-TurboID-GFP), 50 μmol/L biotin 15 min 37°C, RIPA lysate, streptavidin magnetic beads, western blot of LATS1; without IL-1β. (In general: A western blot detects proteins with antibodies after separation by electrophoresis.)

Assay [2] has as its target T1, TurboID-Flag-ZBTB20. Nature of the assay: proximity labelling; as above, chondrocytes treated with IL-1β.

B1: LATS1 (protein, UniProt Q8BYR2 1-1129)
chain: MKRGEKPEGYRQMRPKTFPASNYPGSSRQMLQEIRESLRNLSKPSDASKAEHNLNKMSTEDPRQVRNPPKFGTHHKALQEIRNSLLPFANETSSSRSPSEVNPQMFQDLQAAGFDEDMVIQALQKTNNRSIEAAVEFISKMSYQDPRREQMSAAAARPINATMKPGNVQHSINRKQSWKGSKESLVPQRHGPSLGENVVYRSESPNSQADVGRPLSGSGIAAFAQAHPSNGQRVNPPPPPQVRSVTPPPPPRGQTPPPRGTTPPPPSWEPSSQTKRYSGNMEYVISRISPVPPGAWQEGYPPPPLTTSPMNPPSQAQRAISSVPVGRQPIIMQSTSKFNFTPGRPGVQNGGGQSDFIVHQNVPTGSVTRQPPPPYPLTPANGQSPSALQTGASAAPPSFANGNVPQSMMVPNRNSHNMELYNINVPGLQTAWPQSSSAPAQSSPSGGHEIPTWQPNIPVRSNSFNNPLGSRASHSANSQPSATTVTAITPAPIQQPVKSMRVLKPELQTALAPTHPSWMPQPVQTVQPTPFSEGTASSVPVIPPVAEAPSYQGPPPPYPKHLLHQNPSVPPYESVSKPCKDEQPSLPKEDDSEKSADSGDSGDKEKKQITTSPITVRKNKKDEERRESRIQSYSPQAFKFFMEQHVENVLKSHQQRLHRKKQLENEMMRVGLSQDAQDQMRKMLCQKESNYIRLKRAKMDKSMFVKIKTLGIGAFGEVCLARKVDTKALYATKTLRKKDVLLRNQVAHVKAERDILAEADNEWVVRLYYSFQDKDNLYFVMDYIPGGDMMSLLIRMGIFPENLARFYIAELTCAVESVHKMGFIHRDIKPDNILIDRDGHIKLTDFGLCTGFRWTHDSKYYQSGDHPRQDSMDFSNEWGDPSNCRCGDRLKPLERRAARQHQRCLAHSLVGTPNYIAPEVLLRTGYTQLCDWWSVGVILFEMLVGQPPFLAQTPLETQMKVINWQTSLHIPPQAKLSPEASDLIIKLCRGPEDRLGKNGADEIKAHPFFKTIDFSSDLRQQSASYIPKITHPTDTSNFDPVDPDKLWSDGSEEENISDTLNGWYKNGKHPEHAFYEFTFRRFFDDNGYPYNYPKPIEYEYIHSQGSEQQSDEDDQHTSSDGNNRDLVYV
For the molecule B1, the binding entry is recorded as “binds” with TurboID-Flag-ZBTB20 [1] and “no binding (only cells treated with IL-1β)” with TurboID-Flag-ZBTB20 [2].

(Values after paper PMC11897192.)
